Laboratory results as given in publication PMC10781698.
Results are given in words; binding and its absence hold for the method and conditions named. Binding seen in cells or lysates may run through a third protein. Some binding calls cover weakened binding; strength is not graded here. Where a sequence is shown, tags or fusion partners need not be part of it.

Columns and labels:
ARHGEF2-FLAG = biological target: T1, ARHGEF2-FLAG (UniProt Q60875); assay: co-IP; HEK293T transiently co-transfected pairwise; RIPA lysis buffer (20 mM Tris-HCl pH 7.5, 200 mM NaCl, 1% NP-40); IP with anti-FLAG and blot with anti-HA, or IP with anti-CCDC88B anti-serum and blot with anti-FLAG
T1 sequence: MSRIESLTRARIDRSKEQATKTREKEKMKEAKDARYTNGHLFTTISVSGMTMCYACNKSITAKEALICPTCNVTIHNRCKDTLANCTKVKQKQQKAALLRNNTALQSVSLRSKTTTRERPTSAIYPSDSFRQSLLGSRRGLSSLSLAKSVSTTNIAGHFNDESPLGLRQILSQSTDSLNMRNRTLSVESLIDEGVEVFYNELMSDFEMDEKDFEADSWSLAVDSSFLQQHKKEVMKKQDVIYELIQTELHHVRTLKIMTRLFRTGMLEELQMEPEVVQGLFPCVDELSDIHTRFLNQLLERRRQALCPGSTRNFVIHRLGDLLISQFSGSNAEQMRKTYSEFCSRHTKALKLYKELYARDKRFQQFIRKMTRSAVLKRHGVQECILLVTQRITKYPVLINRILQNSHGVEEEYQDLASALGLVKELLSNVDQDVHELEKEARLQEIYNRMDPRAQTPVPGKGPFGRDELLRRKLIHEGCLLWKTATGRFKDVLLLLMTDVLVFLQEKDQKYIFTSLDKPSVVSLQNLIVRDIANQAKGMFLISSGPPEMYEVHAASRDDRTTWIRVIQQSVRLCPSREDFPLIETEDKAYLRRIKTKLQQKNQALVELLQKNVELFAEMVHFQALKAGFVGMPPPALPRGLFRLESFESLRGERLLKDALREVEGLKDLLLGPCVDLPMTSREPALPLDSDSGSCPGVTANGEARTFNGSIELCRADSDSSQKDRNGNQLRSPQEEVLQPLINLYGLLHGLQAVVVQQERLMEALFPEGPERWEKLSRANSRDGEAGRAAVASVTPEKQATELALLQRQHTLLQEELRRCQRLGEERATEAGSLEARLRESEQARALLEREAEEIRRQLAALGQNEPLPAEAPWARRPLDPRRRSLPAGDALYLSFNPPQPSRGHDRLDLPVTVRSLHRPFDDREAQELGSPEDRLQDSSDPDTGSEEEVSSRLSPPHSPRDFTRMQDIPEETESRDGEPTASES

RASAL3-FLAG = biological target: T2, RASAL3-FLAG (UniProt Q8C2K5); assay: as above
T2 sequence: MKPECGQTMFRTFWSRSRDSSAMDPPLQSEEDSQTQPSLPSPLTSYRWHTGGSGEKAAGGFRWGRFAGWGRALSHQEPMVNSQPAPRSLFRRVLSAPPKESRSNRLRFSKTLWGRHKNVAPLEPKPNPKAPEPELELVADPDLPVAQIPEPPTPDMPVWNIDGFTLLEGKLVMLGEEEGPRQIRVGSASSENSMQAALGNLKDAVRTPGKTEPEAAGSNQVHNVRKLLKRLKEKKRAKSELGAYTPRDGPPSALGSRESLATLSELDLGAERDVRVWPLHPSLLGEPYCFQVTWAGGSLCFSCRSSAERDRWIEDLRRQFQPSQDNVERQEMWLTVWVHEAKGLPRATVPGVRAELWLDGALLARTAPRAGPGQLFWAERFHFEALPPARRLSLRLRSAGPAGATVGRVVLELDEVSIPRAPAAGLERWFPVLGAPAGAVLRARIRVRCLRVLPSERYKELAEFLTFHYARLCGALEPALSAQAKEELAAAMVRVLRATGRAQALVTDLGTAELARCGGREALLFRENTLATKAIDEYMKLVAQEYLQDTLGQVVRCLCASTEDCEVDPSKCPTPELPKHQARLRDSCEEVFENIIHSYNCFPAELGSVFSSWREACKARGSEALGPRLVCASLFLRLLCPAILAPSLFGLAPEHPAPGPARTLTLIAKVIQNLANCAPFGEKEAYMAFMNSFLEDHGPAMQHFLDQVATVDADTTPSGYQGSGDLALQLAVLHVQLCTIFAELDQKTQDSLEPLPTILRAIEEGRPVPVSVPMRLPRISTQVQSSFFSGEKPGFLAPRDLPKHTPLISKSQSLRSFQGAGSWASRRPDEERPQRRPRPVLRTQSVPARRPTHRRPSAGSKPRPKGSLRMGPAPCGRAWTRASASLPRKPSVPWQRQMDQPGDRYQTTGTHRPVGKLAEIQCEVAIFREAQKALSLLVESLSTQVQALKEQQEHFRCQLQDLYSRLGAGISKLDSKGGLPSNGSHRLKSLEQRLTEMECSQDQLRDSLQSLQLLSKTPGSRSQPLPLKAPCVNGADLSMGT

B1: HA-CCDC88B (protein, UniProt Q4QRL3 1-1481)
chain: MEGAKGPRLRGFLSGSLATWALGLAGLVGEAEESAGGTEEEEEEEEEEGALCTEKRFLRLIDGALLLRVLGIIAPSSRGGLRMVRGRDGPAACRMWNLCHLWGRLRDFYQEELQLLILSPPPDLQTMGCDPFSEEAVDELESILRLLLGASVQCEHRELFIRHIRGLSLDVQSELAGAIQEVTQPGAGVVLALAGPESGELVAEELEMQLRSLTGMMSRLARERDLGAQRLAELLLEREPAHLLLPEAPANASAEGVSHHLALQLTNAKAQLRRLRQEVEEKAEQLLDSQAEVQGLEAEIRRLRQETQALSAQAKRAELYREEAEALRERAGRLPRLQEELRRCREKLQAAEVFKGQLEEERVLSEALEASKVLLEEQLEVARERSARLHETQRENLLLRTRLGEAHADLDSLRHQLEQLVEENVELELELQRSLEPPPGSPGEASLPGAAPSLQDEVREAEAGRLRAVERENRELRGQLQMLQAQLGSQHPLLEEQRENSRQPPVPNRDPATPSALHHSPQSPACQIGGEGSESLDLPSPASYSDITRSPKCSQAPDSHPELESPLQMVSQDPQTSDQALQESDPTVETHQCLEKSGHRVPLQSPIVWDPPQGPEVRIEVQELLGETGSREAPQGELVHKAQVLKQESPKCRPRSAELTLREPLKDQKALDRELELSKQQKETGRHEQRPKGLESKLGPQKPQQTSEGVPDAWSREEPTPGETLVSAIPEEQALRDEVAQLRREVAGLEVKLQAQAQRLEARSAEALCLSEELAQARRTEAEAHQEAEAQAREQARLREAVDTASLELEAASREREALAEALAAAGRERRQWERDGPRLRAQVEAAEQQVQALESQVRCHLEEAEREHAEKQALREELEKAVLRGQELGDRLEHLQEELEQAALERQKFLQEQENQHQRYRHLEQRLEAELQAASTSKEEALMELKARALQLEEELIQLRQYPVDLATGARAGPRTVETQNGRLIEVERNNATLVAEKAALQGQLQHLEGQLGSLQGRAQELLLQSQRAQEHSSRLQAEKSMMEMQGQELHRKLGVLEEEVRAARRAQEETRGQQQALLRDHEALVQLQRRQETELEGLLVRHRDLKANMRALELAHRELQGRHEQLQAQRANVEAQEVALLAERERLMQDGHRQRGLEEELRRLQNEHERAQMLLAEVSRERGELQGERGELRSRLARLELERAQLEIQSQQLRESNQQLDLSACRLTTQCELLTQLRSAQEEENRQLLAEVQALSRENRELLERSLESRDHLHREQREYLDQLNALRREKQKLVEKIMDQYRVLEPGPLPRTKKGSWLADKVKRLIRPRREGALHGGPRLGADGAGSTESLGGPLETELPEGREADGTGSSSPAPMRRVQSSLCLGDETLAGGQRRRLSSRFPGGRSSASFSPGDTPRQRFRQRRPGPLGAPSTHSKGSGVEWDGSIKTLSEHEADDTREAFQEQKPEKQFLTPSLSQ
binding (ARHGEF2-FLAG): binds
binding (RASAL3-FLAG): binds
